Several values for one entry are separate records, joined by “and”; a condition that tells them apart may be missing. Identical values can stand only once. About 45 (2%) of roughly 2,000 compounds were called active.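 The calls were made as follows: active = inhibition above the screen-wide mean inhibition plus 3 SD (cut at about 44% in these data); inactive = the rest.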 Some of the results follow. Where a SMILES comes first, the peptide text is derived from it. The star is where a group is joined. Boc = CC(C)(C)OC(=O)*
The compounds below were run against Perilipin-1 (Homo sapiens) + 1-acylglycerol-3-phosphate O-acyltransferase ABHD5 (Homo sapiens) (UniProt O60240+Q8WTS1) (assay: ABHD5-PLIN1 interaction inhibitors, pilot screen, cell lysate, split luciferase complementation, luminescence, NIH validation set (AID 493027;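 also: 0% = DMSO wells with the 100% control not disclosed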)). Conditions: split G. princeps luciferase complementation, 4 h; at 7.9 µM, hits give high values.

By UniProt entry, the sequences of proteins in these tests, tags left out. Where a name states a change or a piece, a line headed by the entry shows the natural chain unless it says otherwise.
UniProt O60240: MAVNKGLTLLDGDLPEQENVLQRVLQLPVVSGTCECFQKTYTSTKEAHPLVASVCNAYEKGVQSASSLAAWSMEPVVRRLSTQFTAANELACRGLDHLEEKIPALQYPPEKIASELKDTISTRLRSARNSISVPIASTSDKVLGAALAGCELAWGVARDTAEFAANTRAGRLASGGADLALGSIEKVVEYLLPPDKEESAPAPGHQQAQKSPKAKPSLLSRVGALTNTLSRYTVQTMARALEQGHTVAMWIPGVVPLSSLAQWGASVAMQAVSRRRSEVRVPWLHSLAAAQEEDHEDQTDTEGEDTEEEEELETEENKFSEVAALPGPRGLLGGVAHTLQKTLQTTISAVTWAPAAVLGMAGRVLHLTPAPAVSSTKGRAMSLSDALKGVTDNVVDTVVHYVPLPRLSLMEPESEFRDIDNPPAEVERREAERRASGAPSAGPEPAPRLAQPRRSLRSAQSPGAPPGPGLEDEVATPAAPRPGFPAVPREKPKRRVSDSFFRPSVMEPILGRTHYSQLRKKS
UniProt Q8WTS1: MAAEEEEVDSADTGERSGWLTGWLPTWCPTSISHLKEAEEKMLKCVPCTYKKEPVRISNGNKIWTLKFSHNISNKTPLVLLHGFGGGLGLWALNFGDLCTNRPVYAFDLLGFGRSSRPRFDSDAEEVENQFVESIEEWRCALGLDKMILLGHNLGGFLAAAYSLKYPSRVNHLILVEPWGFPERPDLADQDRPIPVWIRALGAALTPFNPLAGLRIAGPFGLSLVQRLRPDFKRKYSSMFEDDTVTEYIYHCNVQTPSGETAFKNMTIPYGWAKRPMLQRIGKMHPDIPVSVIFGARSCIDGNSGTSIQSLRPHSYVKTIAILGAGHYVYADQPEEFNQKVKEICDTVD

Row | Structure (SMILES) | inhibition
1 | CC(C)[N+]1(C)[C@@H]2CC[C@H]1CC(OC(=O)C(CO)c1ccccc1)C2 (stereo partly specified) | inactive: -5.55%
2 | CC(C)CC(NC(=O)C1CCCN1C(=O)OC(C)(C)C)C(=O)NCC(N)=O (stereo not drawn) (Boc-Pro-Leu-Gly-NH2; configuration not given here) | inactive: -12.5%
3 | Cc1ncc(C(=O)O)c(C(=O)O)c1N | inactive: -8.83%
4 | CN1CCN(CCCN2c3ccccc3Sc3ccc(C(F)(F)F)cc32)CC1 | inactive: -7.64%
5 | COc1ccc(NC(=O)C2C(=O)N(CCO)C3(C)CC2c2ccccc2O3)cc1 (stereo unspecified) | inactive: -10.9%
6 | Cc1ccc(S(=O)(=O)n2ccnc2)cc1C | inactive: -7.27%
7 | Cc1csc(-c2coc3cc(O)cc(C)c3c2=O)n1 | inactive: 12.8%
8 | NC(N)=NC(N)=NCCc1ccccc1 | inactive: -12.7%
9 | CC(NC(=O)c1cccnc1)C(=O)O (stereo unspecified) | inactive: -12.5%
10 | CC(C)OC(=O)CC1C(=O)NCCN1C(=S)NC(=O)c1cccs1 (stereo unspecified) | inactive: -13.4%
11 | COc1ccc(OCc2cccc(C(=O)NN)c2)cc1 | inactive: -3.21%
12 | C/C(=N\NC(=O)c1ccccc1[N+](=O)[O-])c1ccc(Br)s1 | inactive: 0.76%
13 | O=C(COc1ccc2ccc(=O)oc2c1)c1ccccc1 | inactive: -2.99%
14 | O[C@H]1COC2C1OC[C@@H]2O (stereo partly specified) | inactive: -6.39%
15 | CCc1cccc2c1NC1(CCCC1)CC2C (stereo unspecified) | inactive: -8.25%
16 | Nc1nc2ccc(OC(F)(F)F)cc2s1 | inactive: -1.63%
17 | CC(C)CN1CCN(Cc2ccc(C#CC(C)(C)O)cc2)CC1CCO (stereo unspecified) | inactive: -1.18%
18 | COc1ccc2c(c1)c(CC(=O)O)c(C)n2C(=O)c1ccc(Cl)cc1 | inactive: -7.19%
19 | O=c1c(-c2ccc3c(c2)OCCO3)coc2cc(OC3OC(CO)C(O)C(O)C3O)ccc12 (stereo unspecified) | inactive: -4.41%
20 | Cc1cccc(N2CCN(C(=S)c3ccccc3)CC2)c1 | inactive: -5.97%
21 | O=c1ccc2c(o1)/C(=C/C=C(Cl)Cl)CCC2 | inactive: 5.65%
22 | Cc1ccc(OCCCCn2ccnc2C)c(C)c1 | inactive: -5.04%
23 | CCOC(=O)C1C(=O)OC2(CCOC(C)(C)C2)C1C(=O)OCC (stereo unspecified) | inactive: -2.67%
24 | CC(=O)NC1C(OCCOc2ccc(Cl)cc2Cl)OC(COC(C)=O)C(OC(C)=O)C1OC(C)=O (stereo unspecified) | inactive: -6.38%

Row | Structure (SMILES) | inhibition
25 | Cn1c(=O)c2c(ncn2Cc2ccccc2)n(C)c1=O | inactive: -11.2%
26 | CCOC(=O)C(NC(=O)CCC(=O)Nc1ccc(S(N)(=O)=O)cc1)C(O)c1ccccc1 (stereo unspecified) | inactive: -1.09%
27 | C=CCc1cc(Cl)ccc1OCCOCCN(C)C | inactive: -8.98%
28 | C(=C\c1ccccc1)/CN1CCN(C(c2ccccc2)c2ccccc2)CC1 | inactive: 0.6%
29 | CC1(C)CC(=O)c2c(nc3ccccc3c2N)C1 | inactive: -6.88%
30 | CC(C)C(=O)Nc1c(O)c2ccccc2[nH]c1=O | inactive: -16.2%
31 | O=C(Nc1c(C(=O)O)[nH]c2ccccc12)NC1CCCCC1 | inactive: -3.63%
32 | CC(C)[C@H]1CN(C)CCN1Cc1cn(C)nc1-c1cccc(Cl)c1 | inactive: -8.42%
33 | CC1CCN(CCOCCOc2ccccc2Br)CC1 | inactive: -4.5%
34 | CCC(CO)NCCNC(CC)CO (stereo unspecified) | inactive: -7.31%
35 | c1cnc(N2CCN(Cc3ccc4c(c3)OCO4)CC2)nc1 | inactive: -2.71%
36 | CN(C)C(=O)C12CCC(C)(c3nc4ccccc4nc31)C2(C)C (stereo unspecified) | inactive: -11.6%
37 | C/C(=N\NC(=O)C1(C)CC1(Br)Br)c1ccc([N+](=O)[O-])cc1 (stereo unspecified) | inactive: -4.77%
38 | COC(=O)c1cc(C(=O)NCCC(C)C)cc([N+](=O)[O-])c1 | inactive: -28.2%
39 | COc1cccc(-n2cc(CNCc3c(C(=O)N(C)C)nc4ccc(Cl)cn34)cn2)c1 | inactive: 0.53%
40 | CNS(=O)(=O)c1ccc(C)cc1 | inactive: -13.4%
41 | COC(=O)c1ccc2c(c1)C(=O)/C(=C/c1ccc(O)cc1)O2 | inactive: 7.53%
42 | CC(=O)[C@@]1(O)CC[C@H]2[C@@H]3C[C@H](C)C4=CC(=O)C=C[C@]4(C)[C@@]3(F)[C@@H](O)C[C@@]21C | inactive: -9.9%
43 | CCc1nc(N)nc(N)c1-c1ccc(Cl)cc1 | inactive: -8.52%
44 | O=C(NCCc1cccc(F)c1)[C@@H]1CSC2c3ccccc3C(=O)N21 (stereo partly specified) | inactive: -13.8%
45 | CC(C)NCC(O)COc1ccc(CCOCC2CC2)cc1 (stereo unspecified) | inactive: -0.69%
46 | C1CCC(C(CC2CCCCN2)C2CCCCC2)CC1 (stereo unspecified) | inactive: -1.28%
47 | Clc1ccc(OCCCN2CCCCC2)c(Br)c1 | inactive: 7.48%
48 | Cc1nc(N)sc1C(=O)N/N=C/c1ccco1 | inactive: -3.01%

Row | Structure (SMILES) | inhibition
49 | Cc1ccc(S(=O)(=O)N[C@@H](Cc2ccccc2)C(=O)CCl)cc1 | active: 82.3%
50 | COc1ccc(OCC(=O)N2c3ccc(C)cc3C3CN(C)CCC32)cc1 (stereo unspecified) | inactive: 1.63%
51 | COc1cccc(CN2CCN(C(=O)c3ccc(-c4ccccc4)cc3)CC2)c1 | inactive: 2.9%
52 | COC1CCN(C(=O)c2ccc(OC3CCN(Cc4ccccn4)CC3)cc2)CC1 | inactive: -3.88%
53 | COc1ccc(CCN=C(N)C(C)c2ccccc2)cc1OC (stereo unspecified) | inactive: -12.2%
54 | O=C1c2ccccc2C(=O)N1/N=C/c1ccc(Oc2ccc([N+](=O)[O-])cn2)cc1 | inactive: -4.7%
55 | Cc1ccc(S(=O)(=O)Nc2ccc(S(=O)(=O)Nc3cc(C)nc(C)n3)cc2)cc1 | inactive: -1.59%
56 | CCN(CC)CCCNC(=O)C1c2ccccc2Oc2ccccc21 | inactive: -7.51%
57 | C1COC(NC(C2CC2)C2CC2)=N1 | inactive: 4.41%
58 | NC(N)=N/N=C/c1ccc(OS(=O)(=O)c2ccccc2)cc1 | inactive: 0.04%
59 | OC[C@H]1O[C@@H](n2cnc3c(NC4CCCC4)ncnc32)[C@H](O)[C@@H]1O | inactive: -5.64%
60 | CCOc1cc(C)cc2oc(=O)cc(-c3ccccc3)c12 | inactive: -6.66%
61 | CC(C)CC(=O)Nc1ccc2oc(-c3ccncc3)nc2c1 | inactive: -6.89%
62 | CCN(Cc1ccncc1)Cc1nc(Cc2ccccc2Cl)no1 | inactive: -2.22%
63 | c1cc2c(cc1C1CCCCC1)c1c3n2CCN=C3CCC1 | inactive: -2.95%
64 | Cc1ccc2c(c1C)NC(C(=O)O)C1CC=CC21 (stereo unspecified) | inactive: 12%
65 | COc1cccc2c1C(=O)O/C2=C/c1ccc2c(c1)OCO2 | inactive: 7.21%
66 | CC(C)[N+](C)(CCOC(=O)C1c2ccccc2Oc2ccccc21)C(C)C | inactive: 9.82%
67 | c1ccc(Nc2ccccn2)nc1 | inactive: 0.38%
68 | CC(C)CCn1c(N2CCc3ccccc3C2)nc2c1c(=O)[nH]c(=O)n2C | inactive: 7.93%
69 | O=C(O)CCNC(=O)c1ccccc1 | inactive: -7.18%
70 | Cc1oc2c(O)c(O)ccc2c(=O)c1-c1ccccc1 | inactive: 2.24%
71 | [N-]=[N+]=NC1C[C@H](n2ccc(=O)[nH]c2=O)O[C@@H]1CO (stereo partly specified) | inactive: -13.8%
72 | CCc1ccc(/C=C2\Oc3cc(OC(=O)N4CCOCC4)ccc3C2=O)cc1 | inactive: 17.4%

Row | Structure (SMILES) | inhibition
73 | CC1=NN(c2ccccc2)C(=O)C1 | inactive: 0.75%
74 | COc1ccc(S(=O)(=O)NCc2ccco2)c2ccccc12 | inactive: 0.14%
75 | COc1ccc(CCNC(=O)c2c(O)c3c([nH]c2=O)CCCC3)cc1 | inactive: 3.26%
76 | CCCC(=O)O[C@]1(C(=O)CCl)[C@@H](C)C[C@H]2[C@@H]3CCC4=CC(=O)C=C[C@]4(C)[C@@]3(F)C(=O)C[C@@]21C | inactive: -0.82%
77 | CCOc1ccc2ccccc2c1C(=O)N[C@@H]1C(=O)N2[C@@H]1SC(C)(C)[C@@H]2C(=O)O | inactive: -1.39%
78 | Cn1c(=O)c2c(nc(SCCN3CCCCC3)n2C)n(C)c1=O | inactive: -12.7%
79 | COc1cc2c(cc1OC)C1(CCCC1)CNC2c1cccc([N+](=O)[O-])c1 (stereo unspecified) | inactive: -7.41%
80 | CCN(CC)CCNC(=O)c1cc(Cl)c(N)cc1OC | inactive: 2.4%
81 | NCCc1cnc[nH]1 | inactive: -3.28% and inactive: -10%
82 | COc1ccc(OC)c(S(=O)(=O)N2CCCc3ccccc32)c1 | inactive: -0.08%
83 | NCCCC(=O)O | inactive: -0.12%
84 | O=C(c1ccccc1)N1CCN(C(=O)c2ccccc2)CC1 | inactive: -7.73%
85 | NC(N)=NC(=O)Cc1c(Cl)cccc1Cl | inactive: -5.41%
86 | CC/C(=C(\c1ccc(O)cc1)c1ccc(OCCN(C)C)cc1)c1ccccc1 | inactive: 15.3%
87 | C[C@H](NC(=O)OC(C)(C)C)C(=O)NCC1CCC(C(=O)O)CC1 (stereo partly specified) | inactive: -11.3%
88 | COc1cccc(N2CC(O)=C(c3nc4ccccc4c(=O)[nH]3)C2=N)c1 | inactive: 16.4%
89 | NS(=O)(=O)c1cc2c(cc1Cl)NC(C(Cl)Cl)NS2(=O)=O (stereo unspecified) | inactive: 1.9%
90 | COc1ccc(C(=O)C2CCCCC2=O)cc1 (stereo unspecified) | inactive: -6.92%
91 | Cc1ccc(-n2cc(CNCCN3CCOC3=O)c(-c3ccc(F)cc3)n2)cc1 | inactive: -6.45%
92 | O=C(CCCn1c(=O)oc2ccccc21)N1CCN(c2ccc(F)cc2)CC1 | inactive: -2.2%
93 | Cc1ccc(C(=O)Nc2ccccc2C(=O)NC(C(=O)O)C(C)C)cc1 (stereo unspecified) | inactive: -1.38%
94 | CCn1c(SCC(=O)c2ccccc2)nc2ccccc2c1=O | inactive: 2.15%
95 | CC(=O)O[C@H]1C(=O)[C@@]2(C)[C@H]([C@H](OC(=O)c3ccccc3)[C@]3(O)C[C@H](OC(=O)[C@H](O)C(NC(=O)c4ccccc4)c4ccccc4)C(C)=C1C3(C)C)[C@]1(OC(C)=O)CO[C@@H]1C[C@@H]2O (stereo partly specified) | inactive: 3.2%
96 | CC(=O)Oc1cc2oc(=O)cc(C)c2cc1OC(C)=O | inactive: -5.71%

From PubChem BioAssay AID493027 (The Scripps Research Institute Molecular Screening Center, 2011)
